The record followed here is the supplement of paper PMC12819154, “High-throughput peptide-centric local stability assay extends protein–ligand identification to membrane proteins, tissues and bacteria” (Nature Structural & Molecular Biology, 2025).

By UniProt entry, the sequences of proteins in these tests, tags left out. Where a name states a change or a piece, a line headed by the entry shows the natural chain unless it says otherwise.
UniProt Q99LI8, whole entry: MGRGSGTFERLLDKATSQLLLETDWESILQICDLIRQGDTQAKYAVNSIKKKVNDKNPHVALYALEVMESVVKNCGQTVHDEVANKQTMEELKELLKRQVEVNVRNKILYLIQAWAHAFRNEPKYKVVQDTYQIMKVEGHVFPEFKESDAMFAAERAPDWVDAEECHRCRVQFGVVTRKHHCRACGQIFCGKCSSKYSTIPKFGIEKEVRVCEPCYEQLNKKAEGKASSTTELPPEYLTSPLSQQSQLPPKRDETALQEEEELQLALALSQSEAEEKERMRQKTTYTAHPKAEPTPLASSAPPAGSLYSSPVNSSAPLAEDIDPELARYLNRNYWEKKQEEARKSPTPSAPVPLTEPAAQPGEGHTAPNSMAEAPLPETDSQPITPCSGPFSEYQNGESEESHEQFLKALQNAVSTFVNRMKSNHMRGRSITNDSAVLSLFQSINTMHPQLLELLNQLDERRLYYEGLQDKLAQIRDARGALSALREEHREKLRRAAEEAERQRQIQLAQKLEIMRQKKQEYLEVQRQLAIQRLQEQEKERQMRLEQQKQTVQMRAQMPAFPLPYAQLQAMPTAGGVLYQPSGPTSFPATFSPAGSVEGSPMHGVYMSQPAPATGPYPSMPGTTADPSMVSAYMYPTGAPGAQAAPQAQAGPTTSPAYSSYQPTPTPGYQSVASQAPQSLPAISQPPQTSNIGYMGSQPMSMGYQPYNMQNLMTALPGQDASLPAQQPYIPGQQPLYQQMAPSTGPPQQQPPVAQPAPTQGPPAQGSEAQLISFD
UniProt Q921Y2: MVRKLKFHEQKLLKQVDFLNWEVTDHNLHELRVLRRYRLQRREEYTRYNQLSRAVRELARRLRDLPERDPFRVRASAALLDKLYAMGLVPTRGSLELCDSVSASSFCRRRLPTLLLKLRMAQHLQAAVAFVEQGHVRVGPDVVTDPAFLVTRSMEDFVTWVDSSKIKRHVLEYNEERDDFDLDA
UniProt Q99KG7: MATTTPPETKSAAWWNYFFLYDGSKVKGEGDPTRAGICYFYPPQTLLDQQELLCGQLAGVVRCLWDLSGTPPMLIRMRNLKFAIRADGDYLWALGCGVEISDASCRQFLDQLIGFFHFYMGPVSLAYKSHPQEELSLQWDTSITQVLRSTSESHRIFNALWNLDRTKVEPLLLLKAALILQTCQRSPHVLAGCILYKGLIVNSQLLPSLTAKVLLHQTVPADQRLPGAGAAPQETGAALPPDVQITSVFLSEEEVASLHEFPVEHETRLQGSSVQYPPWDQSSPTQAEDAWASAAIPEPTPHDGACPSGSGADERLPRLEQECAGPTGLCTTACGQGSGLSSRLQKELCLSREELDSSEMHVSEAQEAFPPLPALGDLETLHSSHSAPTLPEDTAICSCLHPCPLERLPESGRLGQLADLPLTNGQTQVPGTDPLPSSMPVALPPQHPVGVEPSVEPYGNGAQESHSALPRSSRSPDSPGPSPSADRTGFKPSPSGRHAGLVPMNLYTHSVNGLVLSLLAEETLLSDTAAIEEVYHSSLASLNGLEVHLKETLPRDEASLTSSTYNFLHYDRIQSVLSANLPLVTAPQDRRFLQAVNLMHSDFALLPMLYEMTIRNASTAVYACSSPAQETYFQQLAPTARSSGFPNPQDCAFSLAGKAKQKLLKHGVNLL
UniProt Q99JY1, whole entry: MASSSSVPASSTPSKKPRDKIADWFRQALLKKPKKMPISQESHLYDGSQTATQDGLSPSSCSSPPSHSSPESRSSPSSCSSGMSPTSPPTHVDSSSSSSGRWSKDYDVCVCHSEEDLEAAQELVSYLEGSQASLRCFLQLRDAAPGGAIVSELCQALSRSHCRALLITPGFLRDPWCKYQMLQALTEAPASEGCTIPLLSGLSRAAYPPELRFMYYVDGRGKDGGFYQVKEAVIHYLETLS
UniProt Q99JR1: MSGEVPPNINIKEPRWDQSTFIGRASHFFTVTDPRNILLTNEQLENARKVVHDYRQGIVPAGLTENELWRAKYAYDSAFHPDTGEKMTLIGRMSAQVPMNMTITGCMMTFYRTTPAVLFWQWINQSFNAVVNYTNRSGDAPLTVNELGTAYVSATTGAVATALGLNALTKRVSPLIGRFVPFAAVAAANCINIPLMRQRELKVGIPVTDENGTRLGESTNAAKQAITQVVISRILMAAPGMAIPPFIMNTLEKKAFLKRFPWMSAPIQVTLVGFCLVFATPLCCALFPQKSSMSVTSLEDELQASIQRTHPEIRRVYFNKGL
UniProt Q91ZW3, whole entry: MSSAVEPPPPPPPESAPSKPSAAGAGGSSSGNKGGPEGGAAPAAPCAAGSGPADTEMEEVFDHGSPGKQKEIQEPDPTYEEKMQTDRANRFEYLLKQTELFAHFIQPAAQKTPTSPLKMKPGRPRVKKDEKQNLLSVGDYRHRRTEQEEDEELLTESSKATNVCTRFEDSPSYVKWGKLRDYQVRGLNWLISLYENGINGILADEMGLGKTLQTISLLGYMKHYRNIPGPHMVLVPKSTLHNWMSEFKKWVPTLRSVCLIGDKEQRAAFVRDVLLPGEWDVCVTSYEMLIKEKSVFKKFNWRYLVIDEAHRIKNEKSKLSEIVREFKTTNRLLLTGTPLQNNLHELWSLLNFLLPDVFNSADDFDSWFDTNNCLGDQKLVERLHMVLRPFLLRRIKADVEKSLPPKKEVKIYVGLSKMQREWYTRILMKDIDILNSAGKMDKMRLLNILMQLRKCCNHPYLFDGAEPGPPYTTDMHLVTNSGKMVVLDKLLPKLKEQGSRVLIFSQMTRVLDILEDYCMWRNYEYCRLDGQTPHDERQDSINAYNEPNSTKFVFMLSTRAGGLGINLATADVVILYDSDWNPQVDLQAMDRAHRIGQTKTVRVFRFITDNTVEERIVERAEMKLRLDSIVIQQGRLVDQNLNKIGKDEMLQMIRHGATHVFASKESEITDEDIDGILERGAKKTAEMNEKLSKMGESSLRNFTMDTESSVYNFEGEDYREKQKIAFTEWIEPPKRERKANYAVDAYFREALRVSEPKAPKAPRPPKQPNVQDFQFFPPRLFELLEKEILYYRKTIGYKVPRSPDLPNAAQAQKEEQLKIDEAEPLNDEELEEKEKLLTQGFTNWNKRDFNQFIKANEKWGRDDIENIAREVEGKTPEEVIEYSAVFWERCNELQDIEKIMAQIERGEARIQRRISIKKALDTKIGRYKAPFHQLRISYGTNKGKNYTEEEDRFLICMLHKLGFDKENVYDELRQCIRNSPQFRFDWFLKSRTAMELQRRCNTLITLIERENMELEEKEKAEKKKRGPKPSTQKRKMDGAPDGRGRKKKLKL
UniProt Q99J08: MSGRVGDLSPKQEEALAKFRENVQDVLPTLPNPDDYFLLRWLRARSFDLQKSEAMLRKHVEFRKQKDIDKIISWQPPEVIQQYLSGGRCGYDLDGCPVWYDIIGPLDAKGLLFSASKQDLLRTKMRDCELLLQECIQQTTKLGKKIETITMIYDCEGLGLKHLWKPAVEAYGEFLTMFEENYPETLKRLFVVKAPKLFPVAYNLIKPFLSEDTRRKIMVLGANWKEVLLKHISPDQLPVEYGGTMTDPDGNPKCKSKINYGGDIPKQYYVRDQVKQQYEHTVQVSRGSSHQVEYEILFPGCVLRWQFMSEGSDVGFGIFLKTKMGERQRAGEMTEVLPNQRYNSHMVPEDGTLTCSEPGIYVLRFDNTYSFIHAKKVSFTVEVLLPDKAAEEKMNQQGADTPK
UniProt Q923X4: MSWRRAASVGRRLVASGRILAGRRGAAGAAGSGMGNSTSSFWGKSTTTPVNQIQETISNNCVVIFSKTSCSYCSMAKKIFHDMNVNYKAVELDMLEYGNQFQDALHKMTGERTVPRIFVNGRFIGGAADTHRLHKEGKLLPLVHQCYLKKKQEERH
UniProt Q99J39: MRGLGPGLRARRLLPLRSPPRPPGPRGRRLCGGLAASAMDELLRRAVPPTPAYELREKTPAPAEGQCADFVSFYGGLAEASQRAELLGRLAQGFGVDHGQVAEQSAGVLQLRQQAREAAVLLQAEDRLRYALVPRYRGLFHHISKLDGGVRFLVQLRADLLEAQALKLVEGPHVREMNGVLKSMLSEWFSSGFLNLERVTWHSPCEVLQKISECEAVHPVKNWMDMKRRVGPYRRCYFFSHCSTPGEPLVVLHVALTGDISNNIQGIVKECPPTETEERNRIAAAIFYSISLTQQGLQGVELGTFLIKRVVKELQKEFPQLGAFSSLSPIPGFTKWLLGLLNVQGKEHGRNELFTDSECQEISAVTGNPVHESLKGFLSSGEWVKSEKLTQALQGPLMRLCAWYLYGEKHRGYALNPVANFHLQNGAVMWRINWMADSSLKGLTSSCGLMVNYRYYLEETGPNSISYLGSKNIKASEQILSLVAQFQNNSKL
UniProt Q922B6: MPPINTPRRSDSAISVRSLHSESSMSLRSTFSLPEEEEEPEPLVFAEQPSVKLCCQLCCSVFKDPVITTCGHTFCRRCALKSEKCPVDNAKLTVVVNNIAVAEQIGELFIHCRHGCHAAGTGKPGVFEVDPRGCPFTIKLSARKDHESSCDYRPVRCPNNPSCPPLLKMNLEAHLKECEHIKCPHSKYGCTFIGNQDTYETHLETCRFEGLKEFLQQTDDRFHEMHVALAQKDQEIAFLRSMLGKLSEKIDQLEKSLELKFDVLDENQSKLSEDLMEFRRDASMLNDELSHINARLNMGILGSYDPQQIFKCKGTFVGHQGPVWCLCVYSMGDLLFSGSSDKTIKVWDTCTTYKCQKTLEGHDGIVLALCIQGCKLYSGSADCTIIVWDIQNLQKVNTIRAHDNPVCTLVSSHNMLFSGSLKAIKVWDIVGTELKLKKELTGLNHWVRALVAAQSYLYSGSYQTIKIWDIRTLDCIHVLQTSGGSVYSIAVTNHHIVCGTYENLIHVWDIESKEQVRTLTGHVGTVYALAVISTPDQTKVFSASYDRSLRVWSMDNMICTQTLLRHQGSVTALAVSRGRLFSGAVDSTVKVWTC
UniProt Q99JZ7: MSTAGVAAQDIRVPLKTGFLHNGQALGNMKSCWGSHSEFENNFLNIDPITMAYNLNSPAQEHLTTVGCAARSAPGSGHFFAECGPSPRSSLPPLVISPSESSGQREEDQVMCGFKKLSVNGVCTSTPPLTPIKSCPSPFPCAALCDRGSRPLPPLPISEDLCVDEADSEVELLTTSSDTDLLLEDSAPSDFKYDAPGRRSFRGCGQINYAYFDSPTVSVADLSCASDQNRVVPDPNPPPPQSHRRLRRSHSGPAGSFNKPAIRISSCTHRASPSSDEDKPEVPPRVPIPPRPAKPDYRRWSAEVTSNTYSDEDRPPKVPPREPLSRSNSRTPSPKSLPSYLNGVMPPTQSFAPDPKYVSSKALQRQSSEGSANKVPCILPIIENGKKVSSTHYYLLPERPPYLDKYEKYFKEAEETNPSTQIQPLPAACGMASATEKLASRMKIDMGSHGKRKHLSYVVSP

The list shows a part of the results. Small differences around the control level are noise.

Compound in this assay: CN[C@@H]1C[C@H]2O[C@@](C)([C@@H]1OC)n1c3ccccc3c3c4c(c5c6ccccc6n2c5c31)C(=O)NC4 [staurosporine]
Description: log2 fold change of tryptic peptide abundance, ligand vs vehicle (limited proteolysis) (log2 ratio); higher = more trypsin-susceptible (destabilized). The note with it: ligand concentration: 20 uM; sample: mouse liver crude lysate; replicate design: treated separately.
Consider “UniProt Q99LI8 (peptide sequence: VVQDTYQIMK, peptide start residue: 127)”, for which the log2 fold change was -0.406.
Next, “UniProt Q921Y2 (peptide sequence: QVDFLNWEVTDHNLHELR, peptide start residue: 15)”: 0.138; “UniProt Q99KG7 (peptide sequence: SPDSPGPSPSADR, peptide start residue: 475)”: -0.505; “UniProt Q99JY1 (peptide sequence: FMYYVDGR, peptide start residue: 213)”: -0.289.
Next, “UniProt Q99JR1 (peptide sequence: QAITQVVISR, peptide start residue: 224)”: -0.485; “UniProt Q91ZW3 (peptide sequence: LLTQGFTNWNKR, peptide start residue: 836)”: 0.341; “UniProt Q99J08 (peptide sequence: AGEMTEVLPNQR, peptide start residue: 330)”: -0.227.
With “UniProt Q923X4 (peptide sequence: FIGGAADTHR, peptide start residue: 123)” the figure was -0.0866.
Take “UniProt Q99J39 (peptide sequence: RAVPPTPAYELR, peptide start residue: 45)”: the log2 fold change came to 0.393.
In the case of “UniProt Q922B6 (peptide sequence: LSEDLMEFRR, peptide start residue: 271)”, the log2 fold change is 0.642.
Next, “UniProt Q99JZ7 (peptide sequence: QSSEGSANKVPCILPIIENGKK, peptide start residue: 366)”: -0.435.
